PubChem BioAssay AID624291 (National Center for Advancing Translational Sciences (NCATS), 2012)
In all, about 350,000 compounds went through this assay and about 220 (0.063%) were called active. The inconclusive results got no clear call from the source; some entries with a clear call stand among them for comparison. Calls follow the shape of the dose curve; as a rule, active = well fitted activation curve with a large enough effect; inconclusive = small, poorly fitted or top-dose-only effect; inactive = no such curve, though single readings can be large or run the other way. Where the call is inconclusive, the potency comes from a doubtful curve fit.

Assay: qHTS for Activators of Integrin-Mediated Alleviation for Muscular Dystrophy; also: nearly all actives have a fitted effect of over 60% in size
Details: alpha7betagal myoblasts, beta-gal FDG fluorescence, 48 h; series mostly up to 38.3 µM
How it was run: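 alpha7betagal+/- myoblasts (passage 13, 250/well) treated 48 h at 37C with compounds at 1:260 dilution of DMSO stock. Lysed, then beta-galactosidase activity read as FDG fluorescence (ex 480/em 540) after 30 min, with pre-read for autofluorescence.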
Potency is read from the fitted curve at half-maximal effect.

Potency, inconclusive:
O=C(Nc1ccc(S(=O)(=O)Nc2nccs2)cc1)c1cccc(F)c1 28.2 µM [activator, single point]
COc1cccc(C(=O)OCC(=O)NC(=O)NC2CCCC2)c1O 0.891 µM [activator, full curve, poor fit]
C=CCSc1nc2ccccc2c2nc(-c3ccccc3)nn12 1.12 µM [activator, partial curve, poor fit]
O=C(Nc1ccccc1N1CCN(C(=O)c2ccccc2)CC1)c1cc(Br)ccc1Cl 28.2 µM [activator, single point]
CCOC(=O)C1CCN(C(=O)CNC(=O)Cn2c(C)cc3ccccc3c2=O)CC1 0.891 µM [activator, full curve, poor fit]
Cc1ccnc(NS(=O)(=O)c2ccc(NS(=O)(=O)c3ccc(Br)cc3)cc2)n1 11.2 µM [activator, partial curve]
CCOc1ccccc1CNC(=O)C(C)n1nc(C)c2c(C)n(-c3ccccc3)nc2c1=O (centres undefined) 1.78 µM [activator, partial curve, poor fit]
CC(=O)N1c2ccc(S(=O)(=O)NCCC(=O)Nc3ccc(F)cc3C)cc2CC1C (centres undefined) 1.78 µM [activator, partial curve, poor fit]
COc1ccc(N(CC(=O)NCC2CCCO2)C(=O)CCC(=O)Nc2nccs2)c(OC)c1 (centres undefined) 1.12 µM [activator, partial curve, poor fit]
C=CCN(CC=C)Cc1ccc(C(=O)OC)o1 14.1 µM [activator, partial curve, poor fit]
COc1ccc(-c2csc(Nc3ccc(S(N)(=O)=O)cc3)n2)cc1 1.58 µM [activator, single point]
COc1ccc(-c2c(C)oc3c(CN4CCOCC4)c(O)ccc3c2=O)cc1 5.01 µM [activator, single point]
COc1ccccc1/C=C/C(=O)NCC(=O)N/N=C/c1ccc(C(=O)O)cc1 15.8 µM [activator, single point]
O=C(CCCCCn1nnc2ccccc2c1=O)Nc1ccccc1F 20 µM [activator, single point]
Cc1ccc(NC(=O)CN(C)CC(=O)Nc2ccc(F)c(Cl)c2)cc1 0.794 µM [activator, full curve, poor fit]
CCN(CC)c1ccc(NC(=O)c2cc3c(OC)cccc3[nH]2)cc1 1.26 µM [activator, single point]
CC(C)Oc1ccc(CC(=O)NNC(=S)Nc2ccccc2)cc1 5.01 µM [activator, single point]
O=C(NCCCn1ccnc1)c1ccc(S(=O)(=O)Nc2ccccc2)cc1 1.58 µM [activator, single point]
CC/C(=N/NS(=O)(=O)c1ccc(Cl)cc1)c1ccc(O)cc1 14.1 µM [activator, partial curve, poor fit]
O=S(=O)(c1cccc2cccnc12)N1CCN(c2ccc(F)cc2)CC1 28.2 µM [activator, single point]
COc1ccc(C(=O)Nc2nc3nc(-c4ccccc4)cc(=O)n3[nH]2)cc1 5.01 µM [activator, full curve, poor fit]
Cc1ccc(C2(c3ccc(C)cc3)NC(=O)N(CC(N)=O)C2=O)cc1 14.1 µM [activator, partial curve, poor fit]
O=S(=O)(c1ccc2ncn(O)c2c1)N1CCOCC1 3.55 µM [activator, single point]
COc1c(F)c(F)c(C(=O)O)c(Nc2ccc(C)cc2C)c1F 10 µM [activator, single point]
Cc1cc(NC(=O)CCC(=O)N(CC(=O)NC2CCCC2)c2ccc(C)c(F)c2)no1 1.78 µM [activator, partial curve, poor fit]
C/C=C/C(=O)Nc1cccc(C2=NOC3(C2)C[C@H](C(N)=O)N(C(=O)/C=C/C)C3)c1 (some centres undefined) 5.01 µM [activator, single point]
CCCc1cc(=O)[nH]c(Nc2ccc(Cl)cc2)n1 14.1 µM [activator, single point]
C/C(=N\Nc1cccc(C(=O)O)c1)c1cc2ccccc2o1 2 µM [activator, partial curve, poor fit]
O=C(COc1ccc(Cl)cc1Br)Nc1nnc(C2CC2)s1 3.55 µM [activator, single point]
CC1(C(=O)NCCc2c[nH]c3ccccc23)C=CCN1C(=O)c1ccccc1 (centres undefined) 3.16 µM [activator, single point]
COc1cc(Cl)c(C)cc1NC(=O)COC(=O)CCc1nc2ccccc2c(=O)[nH]1 10 µM [activator, partial curve]
O=C(Nc1cc(F)ccc1F)c1ccc(-n2cncn2)c([N+](=O)[O-])c1 5.01 µM [activator, single point]
CN(Cc1cn(C)nc1-c1ccccc1F)CC1CCCCO1 (centres undefined) 3.55 µM [activator, single point]
CCC(C)n1[nH]c(=O)cc1N (centres undefined) 11.2 µM [activator, partial curve]
S=C(NCc1ccco1)Nc1cc(-c2ccccc2)[nH]n1 2.82 µM [activator, full curve, poor fit]
c1ccc2c(C[n+]3csc4ccccc43)cccc2c1 2.24 µM [activator, partial curve, poor fit]
O=C(O)c1ccc(CN(Cc2ccccc2)S(=O)(=O)c2ccc(Cl)cc2)cc1 11.2 µM [activator, partial curve, poor fit]
COc1ccc(CNC(=O)CSc2nnc(C)c(=O)[nH]2)cc1 0.447 µM [activator, partial curve, poor fit]
O=C(NN=Cc1ccc([N+](=O)[O-])cc1)c1ccncc1 7.94 µM [activator, partial curve, poor fit]
O=C(O)c1ccccc1NS(=O)(=O)c1ccccc1C(F)(F)F 11.2 µM [activator, partial curve, poor fit]
Cc1cc(NC(=O)c2ccc(-c3ccccc3F)o2)no1 0.501 µM [activator, full curve, poor fit]
CCOc1cc(O)c(-c2[nH]ncc2-c2nc(C)cs2)cc1CC 5.01 µM [activator, single point]
CCOc1ccc(Cn2nnc(-c3ccc(S(C)(=O)=O)cc3)n2)cc1OCC 3.16 µM [activator, single point]
Cc1nn2c(C(F)(F)F)c3c(nc2c1-c1ccccc1)CCC3 5.01 µM [activator, single point]

Among those listed so far, these have bromine:
Potency, inconclusive:
O=C(Nc1ccccc1N1CCN(C(=O)c2ccccc2)CC1)c1cc(Br)ccc1Cl 28.2 µM [activator, single point]
Cc1ccnc(NS(=O)(=O)c2ccc(NS(=O)(=O)c3ccc(Br)cc3)cc2)n1 11.2 µM [activator, partial curve]
O=C(COc1ccc(Cl)cc1Br)Nc1nnc(C2CC2)s1 3.55 µM [activator, single point]

Following part:

Potency, active:
COc1ccc(NC(=O)c2cccc(N3C(=O)c4ccc(C(=O)Nc5ccc(OC)c(O)c5)cc4C3=O)c2)cc1O 4.47 µM

Potency, inactive:
Cc1cc(C)cc(OCC(=O)Nc2nc(-c3cccnc3)cs2)c1
COc1ccc(NC(=O)CN(C)C(=O)CC2CCCC2)cc1
CCN1C(=O)c2cccc3c(NC(=O)c4ccc5c(c4)OCCO5)ccc1c23
CCOC(=O)C1CCN(C(=O)CN2C(=O)CSc3ccc(S(=O)(=O)N4CCOCC4)cc32)CC1
CC1=NOC(=O)/C1=C\c1ccc(-c2ccc(Br)cc2)o1
C/C(=N\NC(=O)Cc1ccccc1Cl)c1cccnc1
CCc1cc(-c2n[nH]c(=S)n2CC)cs1
COc1ccc(N2C(S)=C(C#N)C(=O)NC2c2ccc(OC)c(OC)c2)cc1 (centres undefined)
O=C(/C=C/c1ccccc1)NC(NC(=S)Nc1ccc(Cl)cc1Cl)C(Cl)(Cl)Cl (centres undefined)
COc1ccc(S(=O)(=O)NC(C)CCc2ccccc2)cc1 (centres undefined)
CC1=C(C(=O)N2CCOCC2)CC(CC(=O)NC2CCCC2)C(=O)N1Cc1ccc(F)cc1 (centres undefined)
COc1ccc(/C=N/Nc2nc3ccccc3o2)cc1O
CCC1=NN(C(=O)C(=O)Nc2ccc(OC)cc2)C(O)(C(F)(F)F)C1 (centres undefined)
CC(=O)c1cc(NC(=O)c2ccc(C)cc2)c(=O)oc1C
CCN1CCN(CCOc2ccc(Cl)cc2)CC1
OCC1(Cc2ccccc2)CCN(Cc2cnc(-c3ccc(Cl)cc3)nc2)CC1
Cc1ccc(S(=O)(=O)NCC(=O)NCC(=O)N2CCC(C)CC2)cc1
O=P(C1=C(N2CCOCC2)/C(=C\c2ccccc2)CC1)(N1CCOCC1)N1CCOCC1
Cc1ccc(OCCNS(=O)(=O)c2ccc(N3CCCC3=O)cc2)cc1C
COc1ccccc1Cn1c(=O)c2ccccc2n2c(SCc3csc(C)n3)nnc12
S=C(NCc1ccco1)Nc1ccc(Cl)cc1Cl
CCOC(=O)c1c(-c2ccc(OC)cc2)csc1NC(=O)CNCc1ccco1
CC(=O)NC(=S)Nc1cccc([N+](=O)[O-])c1
COc1cc(OC)c2c(-c3ccccc3)cc(=O)oc2c1C(CCN1CCN(c2ccccc2)CC1)c1ccc(N(C)C)cc1 (centres undefined)

Three entries drawn at random from those above, as already listed:
Potency, inactive:
Cc1ccc(S(=O)(=O)NCC(=O)NCC(=O)N2CCC(C)CC2)cc1
COc1ccc(S(=O)(=O)NC(C)CCc2ccccc2)cc1 (centres undefined)
COc1cc(OC)c2c(-c3ccccc3)cc(=O)oc2c1C(CCN1CCN(c2ccccc2)CC1)c1ccc(N(C)C)cc1 (centres undefined)
